The series in a line: general procedure: solution-phase peptide synthesis; HBTU or HATU with DIPEA. As to conditions: late stage modification step.

As to MC-SAA5-Val-Cit-APEA-AF, the step yield came out at 63%.

Source of the values: patent publication US10618935B2 (Industrial Technology Research Institute, priority 2015, dated 2020).
